Several values for one entry are separate records, joined by “and”; a condition that tells them apart may be missing. Identical values can stand only once. The list shows a part of the results. Shown are side measurements of this screen, not its main read-out; they come without a call. The list favours compounds with an active or inconclusive main result. Words in brackets tell the shape of the fitted curve; partial curves, single points and poor fits give uncertain potencies.
Test: qHTS Assay for Modulators of Lamin A Splicing
Details: HeLa LMNA splicing GFP/RFP minigene ratio, 48 h
Summary of the method: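 S3 HeLa cells stably expressing lamin A-EGFP splicing minigene plus DsRed2, 600 cells/well, 48 h compound exposure at 37C. Laser-scanning cytometry; analysed as GFP (500-530 nm)/RFP (575-640 nm) total intensity ratio; 0.5% DMSO vehicle.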

[1] = measured here: RFP viability control channel
[2] = measured here: GFP splicing reporter channel

Structure (SMILES) | AC50 [1] | AC50 [2]
COc1ccc(C(CC(=O)O)NC(=O)c2cc3cc(Br)ccc3oc2=O)cc1OC (stereo not given) | 0.0141 µM [falling, full curve, poor fit] | 
C=CCn1c(C(C)C)nc2ccccc21 | 1.26 µM [falling, partial curve] | 
O=C(Nc1cccc([N+](=O)[O-])c1)c1ccc2c(c1)OCO2 | 31.6 µM [rising, single point] | 
C/C(=N\Nc1nc2ccccc2[nH]1)c1ccc(N2CCOCC2)cc1 |  | 12.6 µM [falling, partial curve, poor fit]
Cc1[nH]c2ccccc2c1C(=O)CSc1nc2ccccc2c(=O)n1CCCN1CCOCC1 | 22.4 µM [rising, single point] | 
Cc1ccc(CN2CCN(Cc3cn(C)nc3C)CC2CCO)o1 (stereo not given) | 11.2 µM [falling, partial curve] | 11.2 µM [falling, partial curve]
COc1ccc(/C=N/N=C2/NC(=O)C(c3ccccc3)S2)c(OC)c1 (stereo not given) | 7.08 µM [rising, partial curve] | 
Cc1ccc(C(=O)CNc2ccc(F)cc2)cc1 | 0.447 µM [rising, full curve, poor fit] | 1.26 µM [rising, partial curve]
C[C@@H]1[C@H](O)[C@@H](C)/C=C/C=C/C=C/C=C/C=C/C=C/C=C/[C@H](O[C@@H]2O[C@H](C)[C@@H](O)[C@H](N)[C@@H]2O)C[C@@H]2O[C@](O)(C[C@@H](O)C[C@@H](O)[C@H](O)CC[C@@H](O)C[C@@H](O)CC(=O)O[C@H]1C)C[C@H](O)[C@H]2C(=O)O |  | 0.00708 µM [falling, partial curve, poor fit]
Cc1cccc(OCC(=O)N2CCN(C(=O)CCC3CCCC3)CC2)c1 | 3.55 µM [rising, full curve, poor fit] | 2.82 µM [rising, full curve, poor fit]
CCc1ccc(NS(=O)(=O)c2c(-c3ccccc3)csc2C(=O)OC)cc1 | 2 µM [rising, partial curve] | 
CCOC(=O)CS(=O)(=O)c1nc(-c2ccccc2)cc(C(F)(F)F)n1 |  | 35.5 µM [rising, single point]
CS(=O)(=O)Nc1ccccc1C(=O)Nc1cccc(Cl)c1 | 20 µM [rising, partial curve, poor fit] | 
CCN(CC)c1nc(-c2ccccn2)nc(-c2ccccc2)c1C#N |  | 1.12 µM [falling, partial curve, poor fit]
COc1cc(C(=O)N/C(=C\c2cn(C)c3ccccc23)C(=O)NCCCO)cc(OC)c1OC | 0.0398 µM [falling, full curve] | 0.0398 µM [falling, full curve, poor fit]
O=C(Nc1cccc(F)c1)c1cc(S(=O)(=O)N2CCC(C(=O)O)CC2)ccc1F | 1.41 µM [falling, full curve] | 1.41 µM [falling, partial curve]
O=C(N/N=C/c1cccs1)c1ccc(NC(=O)c2ccccc2Cl)cc1 | 12.6 µM [rising, single point] | 
COc1ccc(C[C@H]2COC(=O)[C@@H]2Cc2ccc(OC3OC(CO)C(O)C(O)C3O)c(OC)c2)cc1OC (stereo not given in full) | 7.94 µM [rising, partial curve] | 
CCOC(=O)c1ccccc1NC(=O)Cn1c(=O)n(-c2ccc(CC)cc2)c(=O)c2c(C)c(C(=O)N(C)C)sc21 | 2.82 µM [falling, partial curve, poor fit] | 
CCOc1ccccc1CNC(=O)c1ccc2c(c1)nc1n2CCC(C)C1 (stereo not given) | 22.4 µM [rising, single point] | 
Cc1ccc(SCCNS(=O)(=O)c2ccc3c(c2)OCCO3)cc1 | 31.6 µM [rising, single point] | 
COc1ccc(/C=C/C(=O)OCCCN(C)C)cc1 | 0.112 µM [falling, partial curve, poor fit] | 
O=C(Nc1ccc(F)c(Cl)c1)C1CCN(S(=O)(=O)c2ccc3c(c2)CCCN3C(=O)C2CCC2)CC1 | 1 µM [falling, full curve, poor fit] | 
COc1ccccc1N1CCN(Cc2ccc(O)c3ncccc23)CC1 | 11.2 µM [rising, partial curve] | 
CC[C@H]1NC(=O)c2cc(S(N)(=O)=O)c(Cl)cc2N1 | 0.0447 µM [rising, full curve, poor fit] | 14.1 µM [falling, single point]
O=C(Cn1c(SCC(=O)Nc2ccc(F)cc2)nc2ccccc21)NCc1ccc(Cl)cc1 | 17.8 µM [falling, single point] | 
Cc1nn(Cc2c(F)c(F)c(F)c(F)c2F)c(C)c1NC(=O)c1ccc(COc2ccc(Cl)cc2Cl)o1 | 11.2 µM [rising, partial curve] | 1.12 µM [rising, partial curve]
CCN(CC1COc2ccccc2O1)C(=S)Nc1ccccc1 (stereo not given) | 15.8 µM [rising, single point] | 

Structure (SMILES) | AC50 [1] | AC50 [2]
Cc1ccc(S(=O)(=O)N(C)c2c(C)ccc(S(=O)(=O)NC(C)(C)C)c2C)cc1 | 22.4 µM [falling, single point] | 
CC(=O)c1cccc(N=c2scc(-c3ccc(S(=O)(=O)N4CCOCC4)cc3)n2CCO)c1 | 1.12 µM [rising, full curve] | 12.6 µM [rising, partial curve]
COc1cccc(/C=N/NC(=O)c2c(-c3ccccc3)noc2C)c1O | 6.31 µM [falling, partial curve] | 3.16 µM [falling, full curve]
Cc1ccc2nc(N=C(N)N)nc(C)c2c1 |  | 15.8 µM [falling, partial curve, poor fit]
CC1(C)CC(=O)c2cc(O)ccc2O1 |  | 3.16 µM [falling, partial curve, poor fit]
CSCCC(NS(=O)(=O)c1ccc(Cl)cc1)C(=O)OCC(=O)NC12CC3CC(CC(C3)C1)C2 (stereo not given) | 35.5 µM [rising, single point] | 
COc1ccc(-c2noc(CCC(=O)NCCCN3CCC(Cc4ccccc4)CC3)n2)cc1 | 25.1 µM [rising, single point] | 
Cc1nnc(SCC(=O)c2ccc(C(C)C)cc2)s1 |  | 6.31 µM [falling, single point]
Cc1cc(C)nc(NC(=O)c2cc(-c3ccc(C)s3)nc3ccccc23)c1 | 11.2 µM [rising, partial curve] | 7.94 µM [rising, partial curve]
CCCCn1c(SCc2ncc(-c3ccccc3)o2)nc2cc(S(N)(=O)=O)ccc21 | 12.6 µM [rising, partial curve] | 
O=C(Cn1c(=O)ccc2cc(S(=O)(=O)N3CCCC3)ccc21)Nc1ccc(Cl)cc1 |  | 0.158 µM [falling, full curve, poor fit]
CC(Cc1cccs1)NC(=O)c1cccc(Cl)c1 (stereo not given) | 0.0891 µM [rising, partial curve, poor fit] | 
COc1cc2ccccc2cc1C(=O)NCC(c1cccs1)N(C)C (stereo not given) | 12.6 µM [rising, partial curve, poor fit] | 
COc1ccc(C2=NOC(C(=O)N(C)Cc3ccccc3)C2)cc1 (stereo not given) | 0.794 µM [rising, single point] | 0.708 µM [rising, partial curve]
CCOC(=O)N1CCc2c(sc(NC(=O)CN3CCOCC3)c2C(=O)Nc2ccccc2)C1 | 25.1 µM [rising, single point] | 
CCC(CC)c1nnc(NC(=O)Cc2cccs2)s1 | 5.01 µM [falling, full curve, poor fit] | 
CCOC(=O)c1cc(C)n(Cc2cccc(OC)c2OC)c1C | 31.6 µM [rising, single point] | 
O=C(NCc1cccnc1)C(=O)NCC(c1ccco1)N1CCN(c2ccccc2F)CC1 (stereo not given) | 25.1 µM [rising, single point] | 
COC(=O)/C(C#N)=C/c1c(Oc2cc(C)cc(C)c2)nc2c(C)cccn2c1=O | 0.112 µM [rising, full curve] | 0.178 µM [rising, full curve, poor fit]
Cc1ccc(NC(=O)Cc2ccccc2Cl)cc1S(=O)(=O)N(C)C | 35.5 µM [rising, single point] | 
CCOC(=O)c1c(NC(=O)c2ccn(CC)n2)sc2c1CCCC2 | 31.6 µM [rising, single point] | 35.5 µM [rising, single point]
CCN1C(=O)c2ccccc2Sc2ccc(NC(=O)c3cccc(C)c3)cc21 | 31.6 µM [rising, partial curve, poor fit] | 
Cc1ccc(OCc2nnc(SCC(=O)c3ccccc3)n2Cc2ccco2)cc1 |  | 11.2 µM [rising, single point]
CC(C)NC[C@H](O)COc1ccc(CC(N)=O)cc1 | 0.00158 µM [falling, full curve, poor fit] | 2 nM [falling, full curve] and 0.891 nM [falling, full curve, poor fit] and 178 nM [falling, full curve]
O=C(N/N=C/c1ccc(O)c2ncccc12)c1cccc(Br)c1 | 12.6 µM [falling, single point] | 
O=C(CCNC(=O)c1ccccc1Cl)Nc1nc(-c2ccc(F)cc2)cs1 | 17.8 µM [rising, single point] | 
Cc1ccc2c(CSc3nc4nc(C)cc(C)n4n3)cc(=O)oc2c1 | 20 µM [rising, single point] | 12.6 µM [rising, partial curve, poor fit]

Source: PubChem BioAssay AID1487 (National Center for Advancing Translational Sciences (NCATS), 2009)
